Experimental data taken from paper PMC7948961, “Proteomic identification and validation of novel interactions of the putative tumor suppressor PRELP with membrane proteins including IGFI-R and p75NTR” (The Journal of Biological Chemistry, 2021).
No constants are given. Whether binding was seen depends on the method and setting. In cells and extracts the contact can be indirect. Some results given as binding are weak or reduced against the parent protein; the word gives no strength. Where a sequence is shown, tags or fusion partners need not be part of it.

Sequences of proteins named here, by UniProt entry; tags and fusion partners are left off. Residues count along the entry.
UniProt P08138, residues 29-427: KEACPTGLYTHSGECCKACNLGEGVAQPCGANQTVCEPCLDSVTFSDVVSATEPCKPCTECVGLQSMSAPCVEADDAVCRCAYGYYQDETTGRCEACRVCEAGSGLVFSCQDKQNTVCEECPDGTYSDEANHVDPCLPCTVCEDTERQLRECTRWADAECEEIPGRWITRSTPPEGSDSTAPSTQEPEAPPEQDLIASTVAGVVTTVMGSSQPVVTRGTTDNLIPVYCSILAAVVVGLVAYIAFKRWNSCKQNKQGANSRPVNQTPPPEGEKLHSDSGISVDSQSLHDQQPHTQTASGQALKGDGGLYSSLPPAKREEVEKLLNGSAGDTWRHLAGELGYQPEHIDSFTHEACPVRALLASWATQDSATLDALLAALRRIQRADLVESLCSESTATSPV
UniProt P08069, residues 31-1367: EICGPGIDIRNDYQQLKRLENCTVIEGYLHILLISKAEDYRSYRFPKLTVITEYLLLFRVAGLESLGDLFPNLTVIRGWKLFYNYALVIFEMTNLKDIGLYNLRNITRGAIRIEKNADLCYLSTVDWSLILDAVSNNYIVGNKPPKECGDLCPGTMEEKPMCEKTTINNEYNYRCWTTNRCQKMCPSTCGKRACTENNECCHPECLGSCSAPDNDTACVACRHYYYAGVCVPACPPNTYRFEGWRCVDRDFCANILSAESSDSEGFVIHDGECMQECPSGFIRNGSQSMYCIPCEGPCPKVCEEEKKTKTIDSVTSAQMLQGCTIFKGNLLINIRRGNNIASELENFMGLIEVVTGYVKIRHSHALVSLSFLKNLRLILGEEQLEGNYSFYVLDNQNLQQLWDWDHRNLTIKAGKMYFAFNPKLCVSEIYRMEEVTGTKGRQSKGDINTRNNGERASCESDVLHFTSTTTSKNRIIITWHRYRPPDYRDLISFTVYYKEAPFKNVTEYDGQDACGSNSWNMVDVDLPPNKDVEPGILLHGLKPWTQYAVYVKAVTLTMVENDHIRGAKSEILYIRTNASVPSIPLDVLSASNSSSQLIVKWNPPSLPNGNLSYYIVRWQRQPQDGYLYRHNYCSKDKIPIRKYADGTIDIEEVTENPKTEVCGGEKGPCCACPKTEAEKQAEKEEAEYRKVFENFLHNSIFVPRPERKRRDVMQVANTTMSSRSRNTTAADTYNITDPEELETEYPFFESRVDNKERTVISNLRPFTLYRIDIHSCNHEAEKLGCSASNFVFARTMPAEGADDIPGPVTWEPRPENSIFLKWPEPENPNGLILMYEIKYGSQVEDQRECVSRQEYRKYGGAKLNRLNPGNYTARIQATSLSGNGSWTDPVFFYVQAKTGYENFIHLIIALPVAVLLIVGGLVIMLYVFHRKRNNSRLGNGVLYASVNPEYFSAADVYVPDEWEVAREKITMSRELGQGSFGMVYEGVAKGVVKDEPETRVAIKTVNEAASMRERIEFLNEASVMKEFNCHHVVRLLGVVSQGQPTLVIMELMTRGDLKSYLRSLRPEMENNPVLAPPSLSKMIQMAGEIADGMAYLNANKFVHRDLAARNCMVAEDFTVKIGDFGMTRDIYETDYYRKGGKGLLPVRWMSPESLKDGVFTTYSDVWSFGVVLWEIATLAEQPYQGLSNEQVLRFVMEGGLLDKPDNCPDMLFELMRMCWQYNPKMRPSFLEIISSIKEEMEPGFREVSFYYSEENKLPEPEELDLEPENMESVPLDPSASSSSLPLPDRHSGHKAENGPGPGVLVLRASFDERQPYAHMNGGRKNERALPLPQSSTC

Molecular target: T1, Human PRELP (proline and arginine-rich end leucine-rich repeat protein) with a C-terminal FLAG tag, overexpressed in Expi293 cells (human) (UniProt P51888)
T1 sequence: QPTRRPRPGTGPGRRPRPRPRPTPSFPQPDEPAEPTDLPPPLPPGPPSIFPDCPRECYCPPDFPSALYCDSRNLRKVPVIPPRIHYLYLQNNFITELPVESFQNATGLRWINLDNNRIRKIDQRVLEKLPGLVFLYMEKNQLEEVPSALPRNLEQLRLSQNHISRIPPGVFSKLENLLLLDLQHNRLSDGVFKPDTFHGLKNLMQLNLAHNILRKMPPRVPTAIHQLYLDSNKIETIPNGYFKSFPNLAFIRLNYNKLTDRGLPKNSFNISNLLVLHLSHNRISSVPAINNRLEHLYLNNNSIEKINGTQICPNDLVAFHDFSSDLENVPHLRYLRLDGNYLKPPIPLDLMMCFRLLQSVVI
Experiment: co-IP; anti-FLAG (DDDDK) gel on DDM extract of the membrane fraction of Expi293 cells expressing PRELP-FLAG, eluates analysed by western blot with monoclonal antibodies to IGFI-R beta and p75NTR; control-transfected cells alongside

binding	Substance
binds	Low-affinity nerve growth factor receptor p75NTR (from UniProt P08138 29-427)
binds	Insulin-like growth factor 1 receptor (from UniProt P08069 31-1367)
